Results of single-concentration screens

Protein sequences, listed by entry. Tags and fused reporters are not part of them. Residues count along the entry.
UniProt Q4DA54, 1-478: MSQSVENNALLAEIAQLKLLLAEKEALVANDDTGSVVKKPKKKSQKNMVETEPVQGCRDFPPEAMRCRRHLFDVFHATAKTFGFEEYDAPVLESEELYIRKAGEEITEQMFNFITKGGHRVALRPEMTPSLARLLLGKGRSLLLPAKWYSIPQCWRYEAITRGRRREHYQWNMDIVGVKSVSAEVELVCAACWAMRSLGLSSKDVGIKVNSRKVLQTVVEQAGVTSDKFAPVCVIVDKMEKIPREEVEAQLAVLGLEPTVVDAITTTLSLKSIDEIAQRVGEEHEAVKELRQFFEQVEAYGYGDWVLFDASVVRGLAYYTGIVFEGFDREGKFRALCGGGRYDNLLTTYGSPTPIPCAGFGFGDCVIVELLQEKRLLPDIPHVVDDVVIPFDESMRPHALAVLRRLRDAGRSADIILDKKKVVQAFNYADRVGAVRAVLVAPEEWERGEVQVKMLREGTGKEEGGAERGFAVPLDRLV
UniProt P9WNZ1, whole entry: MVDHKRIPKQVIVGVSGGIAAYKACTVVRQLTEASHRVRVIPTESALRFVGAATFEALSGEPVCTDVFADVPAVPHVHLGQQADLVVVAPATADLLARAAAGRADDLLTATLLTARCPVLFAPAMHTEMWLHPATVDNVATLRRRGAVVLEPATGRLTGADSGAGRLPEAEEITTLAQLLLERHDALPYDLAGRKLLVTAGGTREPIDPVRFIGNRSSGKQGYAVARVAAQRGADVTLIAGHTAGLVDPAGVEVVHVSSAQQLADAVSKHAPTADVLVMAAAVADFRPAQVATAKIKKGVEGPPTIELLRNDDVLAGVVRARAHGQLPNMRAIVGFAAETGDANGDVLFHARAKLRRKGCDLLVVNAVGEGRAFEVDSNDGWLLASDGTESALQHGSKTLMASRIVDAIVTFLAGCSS

TcHisRS: 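Histidine-tRNA ligase, Trypanosoma cruzi CL Brener (UniProt Q4DA54). Enzyme assay of histidyl-tRNA synthetase; the read-out is not stated. Tested at 30 µM. The record gives no direction; compounds that gave an IC50 in retests scored well above the rest, so higher reads as stronger inhibition. Size under these conditions: about 69,000 compounds, about 31 of them at 50% or above in at least one test.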
CoaBC: 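Enzyme assay of CoaBC with a phosphate dye (Biomol Green) read at 650 nm. Target: Coenzyme A biosynthesis protein CoaBC, Mycobacterium tuberculosis (UniProt P9WNZ1). Tested at 30 µM. Direction is inferred from only a few compounds that gave an IC50; most scored high, so higher reads as stronger inhibition. Most strong results did not repeat in a second test. Size under these conditions: about 67,000 compounds, about 40 of them at 50% or above in at least one test.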

Values are the deposited “Percent Effect”, in %.
How 0% and 100% were set is not recorded. Most values in the screen are low, and negative values occur.
Compounds were drawn at random from those tested, without regard to their results.

SMILES | TcHisRS | CoaBC
CCN1CCN(C(=O)c2cnc3c(cnn3C3CCCC3)c2)CC1 | 1.163 | 18.64
O=C(CCN1C[C@H]2CC[C@@H]1CN(c1ncccn1)C2)NCc1ccco1 | 1.463 | 3.639
O=C(NCCCO)Nc1cccc(C[S+]([O-])Cc2ccccc2)c1 (centres unmarked) | 8.333 | -4.412
Cc1csc(C(Cc2ccsc2)NC(=O)Cn2cccnc2=O)n1 (centres unmarked) | 0 | -2.451
Cc1nc2n(n1)CC(Nc1nc(-c3ccccc3)no1)CC2 (centres unmarked) | 7.895 | 1.272
COc1ccc(S(=O)(=O)Nc2cccnc2-n2cncn2)c(C)c1 | 9.091 | 0.4866
CCn1nc(C)c2nc(C(C)C)nc(N3CCOCC3)c21 | 0.8772 | -30.88
CCC(NCc1cccc(Cl)c1)c1ccccc1OCC(=O)NC (centres unmarked) | 1.053 | -1.195
CCN1CCCC(NC(=O)CCn2c(C(F)F)cc3cccnc32)C1 (centres unmarked) | 7.605 | 0.8653
Fc1cccc(-c2nnn3c2COC(CNCc2nccs2)C3)c1 (centres unmarked) | -3.093 | 0.9852
CC(C)NC(=O)C1CCc2nnc(CNC(=O)c3ccc(Cl)cc3Cl)n21 (centres unmarked) | 6.509 | 0.7895
COc1cc(C(=O)Nc2nc(C)no2)ccc1C | 2.256 | 10.8
CC1CN(C)CCN1C(=O)Cc1cc(Cl)c2c(c1)OCCO2 (centres unmarked) | 1.739 | 10.85
COc1ccc(C(C(=O)O)N2CCCN(C3CCCCC3)CC2)cn1 (centres unmarked) | 3.39 | -24.67
Cc1ncoc1C(=O)N1CCn2c(COc3cccnc3)cnc2C1C (centres unmarked) | 9.091 | -0.4202
Cc1cc(C(=O)N2CC[C@](C)(O)[C@H](C)C2)c(C)n1C | 3.478 | 2.684
Cc1nc(CN2C(=O)CC[C@@H]3[C@H]2CCN3C(=O)c2ccc[nH]2)cs1 | -1.97 | 4.315
COCCC1(CO)CCCN(Cc2ccncc2)C1 (centres unmarked) | 6.522 | 11.21
Cn1cc(NC(=O)N2CCCC2c2cccnc2)ccc1=O (centres unmarked) | 38.62 | 10.14
Cc1ccccc1C1(O)CCN(C(=O)CCc2cn3ccccc3n2)C1 (centres unmarked) | 2.469 | -3.44
C=C(C)CN1CCC(NC(=O)Nc2ccc(F)c(C(=O)NC)c2)CC1 | 1.667 | 0.3891
Cc1noc([C@@H]2CC[C@@H]3[C@@H](CCN3S(=O)(=O)c3cccnc3)O2)n1 | -12.3 | -5.59
Cc1noc(C)c1C(=O)N1CCCN(Cc2cscn2)CC1 | 4.373 | 7.572
Cc1ccc(C(=O)N2CCC3(CCN3Cc3ccc(F)cc3)C2)cn1 (centres unmarked) | 27.64 | 17.45
CCn1ncnc1C(C)NC(=O)C1CCN(C2CCCCC2)CC1 (centres unmarked) | 3.261 | 4.673
CNS(=O)(=O)c1ccc(C(=O)NCc2ccnc(OC)c2)cc1 | 3.982 | -9.112
O=C(NCc1cc2ccccc2[nH]1)C1CCCN(C(=O)N2CCCC2)C1 (centres unmarked) | 7.018 | 7.977
Cc1ccccc1N1CCN(C(=O)Cc2ccc3c(c2)OCO3)CC1=O | 2.976 | -4.75
CN(Cc1ncnn1C)C(=O)Nc1ccc(OC(F)F)cc1 | -6.897 | -0.861
CC(C)N1CCO[C@H]2CN(C(=O)c3ccsc3)C[C@H]21 | 10.92 | 5.071
Cc1ccccc1-n1cnc(Cl)c1CO | -17.17 | -3.704
COC(=O)N1CCCC(C(=O)N2CCCCC2)C1 (centres unmarked) | 5.82 | 6.11
CN(C)CCn1ccnc1C1CCCN(c2nccc3ccccc23)C1 (centres unmarked) | -16.43 | 6.584
Cc1ccc(NC(=O)NC(C)C(=O)N2CCS(=O)(=O)CC2)cc1 (centres unmarked) | 0 | -6.61
CC(=O)N1N=C(Cc2ccccc2)OC1C(=O)NCC(C)C (centres unmarked) | 12.5 | 0.7282
Cn1cnnc1S(=O)(=O)Cc1cc(Cl)c2c(c1)OCO2 | 5.028 | 2.823
COc1cc(NC2CCS(=O)(=O)C2)ncn1 (centres unmarked) | 8.537 | 4.937
COC(=O)c1ccc(C2SCC(=O)Nc3c2cnn3C(C)(C)C)cc1 (centres unmarked) | 0 | 0
Cc1n[nH]c(C)c1NC(=O)CN(CC(O)c1ccc(F)cc1)C1CC1 (centres unmarked) | 8.743 | -1.711
CCCNc1ccc(C(=O)NCCc2cccc(OC)c2)cn1 | 4.545 | 4.612

For reference, 5 entries once more:

| SMILES | TcHisRS | CoaBC |
|---|---|---|
| `CCN1CCN(C(=O)c2cnc3c(cnn3C3CCCC3)c2)CC1` | 1.163 | 18.64 |
| `CC1CN(C)CCN1C(=O)Cc1cc(Cl)c2c(c1)OCCO2` (centres unmarked) | 1.739 | 10.85 |
| `Cc1nc(CN2C(=O)CC[C@@H]3[C@H]2CCN3C(=O)c2ccc[nH]2)cs1` | -1.97 | 4.315 |
| `Cc1nc2n(n1)CC(Nc1nc(-c3ccccc3)no1)CC2` (centres unmarked) | 7.895 | 1.272 |
| `Cc1ccccc1N1CCN(C(=O)Cc2ccc3c(c2)OCO3)CC1=O` | 2.976 | -4.75 |

Source: ChEMBL document CHEMBL3988442, “University of Dundee, Small-Polar-MMV Screening Library” (2021).